Measurements from PubChem BioAssay AID540256 (National Center for Advancing Translational Sciences (NCATS), 2011).
The campaign covered roughly 300,000 compounds. About 3,700 (1.2%) were called active. The shares of active, inactive and inconclusive entries below differ from those in the screen. Calls follow the shape of the full dose curve; tested in HEK293 cells. Potencies of inconclusive entries are doubtful fits and often do not repeat.

test: qHTS for Inhibitors of binding or entry into cells for Lassa Virus; settings: Lassa virus pseudotype entry inhibition, cell reporter; activity change, negative = inhibition: at 37.9 µM (top of the series) unless noted; also: nearly all actives have a fitted effect of over 50% in size
% is scaled to controls: 0 for no effect and ±100 for the full control effect; potency is read from the fitted curve at half-maximal effect.

Compound | activity change, negative = inhibition | Potency
CCOc1cccc(OCCCCn2cnc3ccccc3c2=O)c1 | inactive: 20.5% | 
CCOC(=O)c1ccc(N2C(=O)c3n[nH]c(-c4ccco4)c3C2c2ccc([N+](=O)[O-])cc2)cc1 (stereo unspecified) |  | active: 23.1 µM
COc1ccc(COC(=O)C2=C(C)NC(=O)NC2c2ccccc2OC(C)C)cc1 (stereo unspecified) |  | inconclusive: 0.141 µM [inhibitor, full curve, poor fit]
Cc1ccccc1OCC(=O)Nc1cc(S(=O)(=O)N2CCCCC2)ccc1N1CCN(C)CC1 |  | inconclusive: 35.5 µM [inhibitor, single point]
CCOc1ncccc1C(=O)Nc1ccc2nc(C)sc2c1 |  | inconclusive: 35.5 µM [inhibitor, partial curve, poor fit]
Cc1ccnc(NS(=O)(=O)c2ccc(NC(=O)c3cc(-c4ccc(Br)cc4)nc4ccccc34)cc2)n1 |  | inconclusive: 32.6 µM [inhibitor, single point]
Cc1ccc(NC(=O)OC(C)N2CCCCC2)cc1NC(=O)OC(C)N1CCCCC1 (stereo unspecified) |  | inconclusive: 11.2 µM [inhibitor, partial curve, poor fit]
CCCCN1CC(COCc2ccccc2)Oc2cccc(Oc3ccc(C)cc3)c2S1(=O)=O (stereo unspecified) |  | inconclusive: 2.5 µM [inhibitor, full curve]
CC(=O)N/C(=C\c1ccccc1)C(=O)OCC(=O)c1c(N)n(CC(C)C)c(=O)n(C)c1=O | inactive: 14.4% [at 46.1 µM] | 
Cc1ccc(Cl)c(OCC(=O)OCC(=O)c2ccc[nH]2)c1 | inactive: 17.7% | 
N#C/C(=C(/O)CN1CCN(c2ccccc2F)CC1)c1nc(-c2ccc(Cl)cc2)cs1 | inactive: 12.3% | 
COc1ccc(C(=O)NCC(c2ccc(N(C)C)cc2)N2CCc3ccccc32)cc1 (stereo unspecified) |  | inconclusive: 3.98 µM [inhibitor, full curve]
COc1cccc2c1c(NC(=O)Nc1ccc(F)cc1F)nn2C | inactive: 2.01% [at 46.1 µM] | 
CCCN1CCN(c2cc3c(cc2F)c(=O)c(S(=O)(=O)c2ccc(Cl)cc2)cn3C)CC1 | inactive: -6.9% [at 46.1 µM] | 
Cn1c(=O)n(C)c2cc([N+](=O)[O-])c(N3CCN(C(=O)C(C)(C)C)CC3)cc21 |  | inconclusive: 20 µM [inhibitor, partial curve, poor fit]
CC(C)c1ccc(NC(=O)C2CCCN2S(=O)(=O)c2ccccc2F)cc1 (stereo unspecified) |  | inconclusive: 28.2 µM [inhibitor, partial curve, poor fit]
Cc1nnc(Nc2ccc(S(N)(=O)=O)cc2)c2ccccc12 |  | inconclusive: 11.2 µM [inhibitor, partial curve, poor fit]
Cc1ccc(NC(=O)c2cnn(-c3ccccc3)c2C)cc1C |  | active: 3.16 µM
C=C(C)Cn1c(=O)n(CC2CS2)c2ccccc21 (stereo unspecified) |  | inconclusive: 2.59 µM [inhibitor, full curve, poor fit]
Cc1ccc(CNC(=O)Cn2c(=O)n(Cc3ccccc3)c(=O)c3sc4ccccc4c32)cc1 | inactive: -9.98% [at 46.1 µM] | 
CC1CCCCN1Cc1nc2ccccc2c(=O)[nH]1 (stereo unspecified) |  | inconclusive: 14.1 µM [activator, partial curve, poor fit]
CCc1cccc(NC(=O)CSc2nc3ccsc3c(=O)n2CC)c1 |  | inconclusive: 35.5 µM [inhibitor, single point]

Compound | activity change, negative = inhibition | Potency
S=C1NCCc2ccccc2C1c1ccccc1Cl (stereo unspecified) | inactive: -5.38% | 
Nc1c(-c2ccccc2)cnn1-c1cccc(Cl)c1 |  | inconclusive: 0.708 µM [activator, partial curve, poor fit]
CC(=NCc1cccnc1)c1c(O)n(-c2ccccc2)c(=O)[nH]c1=O |  | inconclusive: 3.26 µM [activator, single point]
CCOC(=O)N1CCc2c(sc3nc(SC(C)C)n(N)c(=O)c23)C1 | inactive: -13.3% | 
CC(=O)N1N=C(c2cccnc2)OC1c1ccccc1Cl (stereo unspecified) |  | inconclusive: 1.26 µM [inhibitor, single point]
CSc1ccccc1OCc1cc(C(=O)N(C)Cc2ccc(C)o2)no1 |  | inconclusive: 35.5 µM [inhibitor, single point]
COc1cc(C2NCC(c3ccc(Cl)cc3Cl)c3c2[nH]c2ccccc32)cc(OC)c1OC (stereo unspecified) |  | inconclusive: 32.6 µM [inhibitor, single point]
COc1ccc(S(=O)(=O)N2CCOCC2)cc1NC(=O)COc1ccc2ccc(=O)oc2c1 |  | inconclusive: 3.16 µM [inhibitor, partial curve]
COC(=O)c1cc(C(=O)OCC(=O)N(C)c2ccccc2)cc([N+](=O)[O-])c1 | inactive: -14.6% | 
Cc1ccc(S(=O)(=O)N/N=C/c2ccccc2O)cc1[N+](=O)[O-] |  | inconclusive: 1.26 µM [inhibitor, single point]
CCOC(=O)c1cccc(NC(=O)CSc2nc3cccnc3n2C)c1 |  | inconclusive: 14.1 µM [inhibitor, single point]
CC(C)NC(=O)/C(C#N)=C/c1cccc(NC(=O)c2ccccc2Cl)c1 | inactive: 7.22% | 
COc1ccc(Nc2c3c(nc4ccc(NC(=O)/C=C/c5cccc(OC)c5OC)cc24)CCCC3)cc1OC |  | inconclusive: 12.6 µM [inhibitor, single point]
Cc1nc(-c2ccc(S(=O)(=O)N3CCN(CCc4ccccc4)CC3)s2)cs1 |  | inconclusive: 0.891 µM [inhibitor, full curve, poor fit]
CCOc1ccc(NC(=O)CC2C(=O)N(C)C(=S)N2CCCc2ccccc2)cc1 (stereo unspecified) |  | inconclusive: 16.4 µM [inhibitor, single point]
CCC(=O)Nc1ccc2c(c1)ncn2-c1ccccc1OC | inactive: 11.3% | 
Oc1c(C=Nc2ccccc2)sc(=S)n1Cc1ccccc1 |  | inconclusive: 35.5 µM [inhibitor, single point]
COc1ccc(CC(=O)N(C)Cc2ccc(C(C)(C)C)cc2)cc1S(=O)(=O)N1CCOCC1 |  | inconclusive: 12.6 µM [inhibitor, partial curve, poor fit]
CC(C)c1ccc(C2CC(c3ccc(Br)cc3)=NN2C(N)=S)cc1 (stereo unspecified) |  | inconclusive: 14.1 µM [inhibitor, single point]
O=C(NNC1CC(=O)N(c2ccccc2)C1=O)c1cccnc1 (stereo unspecified) | inactive: 9.18% | 
CC(=O)Nc1cccc(NC(=O)C(=O)c2cn(CC(=O)N3CCCCC3)c3ccccc23)c1 |  | inconclusive: 8.91 µM [activator, partial curve, poor fit]
Cc1ccc(C(C(=O)NC2CCCCC2)N(Cc2ccccc2)C(=O)Cc2c[nH]c3ccccc23)o1 (stereo unspecified) |  | inconclusive: 18.4 µM [inhibitor, single point]

In another format: results already given
Compound	activity change, negative = inhibition	Potency
O=C(NNC1CC(=O)N(c2ccccc2)C1=O)c1cccnc1 (stereo unspecified)	inactive: 9.18%	
CC(=O)Nc1cccc(NC(=O)C(=O)c2cn(CC(=O)N3CCCCC3)c3ccccc23)c1		inconclusive: 8.91 µM [activator, partial curve, poor fit]

Rewritten as labelled records: 2 of the compounds above
S=C1NCCc2ccccc2C1c1ccccc1Cl (stereo unspecified)
  activity change, negative = inhibition: inactive: -5.38%
Nc1c(-c2ccccc2)cnn1-c1cccc(Cl)c1
  Potency: inconclusive: 0.708 µM [activator, partial curve, poor fit]

Further results.

Compound | activity change, negative = inhibition | Potency
CC(C)c1ccc(NC(=O)c2ccc(Cn3nc(N4CCN(c5ccccc5)CC4)ccc3=O)o2)cc1 | inactive: 16.8% [at 46.1 µM] | 
CN1CCN(Cc2cccc(Oc3ccccc3)c2)CC1 |  | inconclusive: 0.092 µM [inhibitor, full curve]
O=C(Cn1ncn2nc(-c3cccs3)cc2c1=O)NCc1ccccc1Cl | inactive: 5.86% [at 46.1 µM] | 
O=C(CCNC(=O)Cn1ccc2ccccc2c1=O)NCCCN1CCN(c2ccccc2F)CC1 |  | inconclusive: 4.11 µM [activator, full curve, poor fit]
Cc1cccc(N2CCN(C(=O)CCNS(=O)(=O)c3ccc4c(c3)oc(=O)n4C)CC2)c1C |  | inconclusive: 22.4 µM [inhibitor, single point]
S=C1NC2=C(CCCC2=C2SCCS2)C(c2ccccc2)N1 (stereo unspecified) |  | inconclusive: 7.08 µM [inhibitor, full curve, poor fit]
CC1CC1C(=O)Nc1nc2ccc(S(C)(=O)=O)cc2s1 (stereo unspecified) |  | inconclusive: 35.5 µM [inhibitor, single point]
COc1ccc(CNC(=O)c2cccc(N3CCCS3(=O)=O)c2)cc1OC | inactive: -15% [at 46.1 µM] | 
CCN(CC)S(=O)(=O)c1ccc(C(=O)NCc2ccc3[nH]c4c(c3c2)CCCC4)cc1 |  | inconclusive: 20.6 µM [inhibitor, single point]
CCN1CCN(CCC(=O)Nc2ccccc2)CC1 |  | inconclusive: 11.2 µM [activator, single point]
COc1cccc(N2C(C(C)=O)=NN(c3ccccc3)C2c2ccc(N3CCOCC3)cc2)c1 (stereo unspecified) |  | inconclusive: 25.9 µM [inhibitor, single point]
CCn1c(SCC(=O)N/N=C/C=C\c2ccco2)nc2ccccc21 |  | inconclusive: 6.31 µM [inhibitor, partial curve, poor fit]
COc1cccc2sc(=NC(=O)CS(=O)(=O)c3ccc(Cl)cc3)n(C)c12 | inactive: -15.3% | 
O=c1cc(-c2ccc(F)cc2)nc(SCc2nc(-c3cccc(C(F)(F)F)c3)no2)[nH]1 | inactive: 3.25% [at 46.1 µM] | 
CCCCn1c(N)c(N(CCOC)C(=O)c2ccc(-c3ccc(Cl)cc3)o2)c(=O)[nH]c1=O | inactive: -9.24% [at 46.1 µM] | 
Cc1c(C(=O)N(Cc2cccc(F)c2)C2CCS(=O)(=O)C2)oc2cc(Br)ccc12 (stereo unspecified) |  | inconclusive: 11.2 µM [inhibitor, partial curve, poor fit]
Cc1cc(Cl)c2oc(C(=O)NCCC3CCCCO3)c(C)c2c1 (stereo unspecified) |  | inconclusive: 10 µM [inhibitor, partial curve, poor fit]
CC1CCCN(S(=O)(=O)c2ccc(N3CCCCS3(=O)=O)cc2)C1 (stereo unspecified) | inactive: 4.98% [at 46.1 µM] | 
Nc1c(-c2ccccc2)c(CSc2nc3ccccc3[nH]2)nn1-c1ccc(Cl)cc1 |  | inconclusive: 18.4 µM [inhibitor, single point]
O=C(O)c1ccccc1Nc1ccc(OC(F)F)cc1 |  | inconclusive: 22.4 µM [inhibitor, single point]
Cc1ccc(C(=O)Nc2cccc3cccnc23)cc1C |  | inconclusive: 25.1 µM [activator, partial curve, poor fit]
COc1ccc(-n2c(C)nc3cc(C(=O)NC4CCCCCC4)ccc32)cc1 | inactive: 4.74% [at 46.1 µM] | 
